Results taken from patent US8273783B2, “Microbiocides” (Syngenta Crop Protection LLC, priority 2009, dated 2012).
Some entries share one result that the patent states for a list of compounds.

Assays:
Botryotinia fuckelianal = assay: Action against Botryotinia fuckeliana, liquid culture (gray mould); type: cell-based; conditions: nutrient broth, 0.02% active ingredient, 24° C., photometrically after 3-4 days
Method: (§1) Conidia of the fungus from cryogenic storage were directly mixed into nutrient broth. After placing a (DMSO) solution (0.02% active ingredient) of the test compounds into a microtiter plate (96-well format) the nutrient broth containing the fungal spores was added. The test plates were incubated at 24° C. and the inhibition of growth was determined photometrically after 3-4 days.

[1] = test system: Erysiphe Graminis f.sp. Tritici; assay: Action against Erysiphe graminis f.sp. tritici (wheat powdery mildew), leaf segments, preventive; type: in vivo; conditions: 0.02% active ingredient, assessed 7 days after inoculation
Method: (§2) Wheat leaf segments were placed on agar in multiwell plates (24-well format) and sprayed with test solutions (0.02% active ingredient). After drying, the leaf disks were inoculated with a spore suspension of the fungus. After appropriate incubation the activity of a compound was assessed 7 days after inoculation as preventive fungicidal activity.

[2] = test system: Mycosphaerella graminicola (Septoria tritici); assay: Action against Mycosphaerella graminicola (Septoria tritici), liquid culture (Septoria blotch); type: cell-based; conditions: PDB potato dextrose broth, 24 C, photometrically after 4 days
[3] = test system: Gibberella Zeae (Fusarium graminearum); type: in vivo; conditions: wheat spikelets, assessed 6 dpi
Mycosphaerella arachidis = assay: Action against Mycosphaerella arachidis, liquid culture (early leaf spot); type: cell-based; conditions: PDB potato dextrose broth, 0.02% active ingredient, 24° C., photometrically after 6-7 days
Method: as §1, with “broth (PDB potato dextrose broth).” for “broth.”, “solution” for “solution (0.02% active ingredient)”, “compounds (0.02% active ingredient)” for “compounds”, “measured” for “determined”, “6-7” for “3-4”

Puccinia Recondita [4] = assay: Curative action against Puccinia recondita (brown rust) on wheat leaf segments; type: in vivo; conditions: sprayed one day after inoculation, 0.02% active ingredient, assessed 8 days after inoculation
Text: Wheat leaf segments were placed on agar in multiwell plates (24-well format) and inoculated with a spore suspension of the fungus. One day after inoculation the leaf segments were sprayed with test solutions (0.02% active ingredient).

Fusarium culmorum = type: in vivo; conditions: wheat spikelets, assessed 6 dpi
Puccinia Recondita [5] = assay: Preventive action against Puccinia recondita (brown rust) on wheat leaf segments; type: in vivo; conditions: 0.02% active ingredient, assessed 8 days after inoculation
Text: Wheat leaf segments were placed on agar in multiwell plates (24-well format) and sprayed with test solutions (0.02% active ingredient). After drying, the leaf disks were inoculated with a spore suspension of the fungus.

Pyrenophora teres = assay: Action against Pyrenophora teres (net blotch) on barley leaf segments; type: in vivo; conditions: 0.02% active ingredient, assessed 4 days after inoculation
Method: as §2, with “Barley” for “Wheat”, “4” for “7”

Phaeosphaeria nodorum = assay: Preventive action against Phaeosphaeria nodorum (glume blotch) on wheat leaf segments; type: in vivo; conditions: 0.02% active ingredient, assessed 4 days after inoculation
Method: Wheat leaf segments were placed on agar in a multiwell plate (24-well format) and sprayed with test solutions (0.02% active ingredient). After drying, the leaf disks were inoculated with a spore suspension of the fungus. After appropriate incubation the activity of a compound was assessed 4 days after inoculation as preventive fungicidal activity.

CON(C(=O)c1cn(C)nc1C(F)F)C(C)Cc1c(Br)sc(Cl)c1Cl (stereo not drawn) [Compound 1.004]
≥ 80%: inhibition of growth (Botryotinia fuckelianal) | inhibition (preventive fungicidal activity) [1] | inhibition of growth [2] | inhibition (preventative fungicidal activity) [3] | inhibition of growth (Mycosphaerella arachidis) | inhibition (curative fungicidal activity) (Puccinia Recondita [4]) | inhibition (preventative fungicidal activity) (Fusarium culmorum) | inhibition (preventive fungicidal activity) (Puccinia Recondita [5])

COC(c1c(Cl)sc(Cl)c1Cl)C(C)N(OC)C(=O)c1cn(C)nc1C(F)(F)F (stereo not drawn) [Compound 2.016]
≥ 80%: inhibition of growth (Botryotinia fuckelianal) | inhibition (preventive fungicidal activity) [1] | inhibition of growth [2] | inhibition (preventive fungicidal activity) (Pyrenophora teres) | inhibition (preventative fungicidal activity) [3] | inhibition of growth (Mycosphaerella arachidis) | inhibition (preventative fungicidal activity) (Fusarium culmorum)

COC(c1c(Cl)sc(Cl)c1Cl)C(C)N(OC)C(=O)c1cn(C)nc1C(F)F (stereo not drawn) [Compound 1.016, 3-difluoromethyl-1-methyl-1H-pyrazole-4-carboxylic acid methoxy-[2-methoxy-1-methyl-2-(2,4,5-trichlorothiophene-3-yl)ethyl]amide]
≥ 80%: inhibition (preventative fungicidal activity) [3] | inhibition (preventative fungicidal activity) (Fusarium culmorum)

COC(c1c(Br)sc(Cl)c1Cl)C(C)N(OC)C(=O)c1c(C)nn(C)c1F (stereo not drawn) [Compound 3.019]
≥ 80%: inhibition of growth (Botryotinia fuckelianal) | inhibition (preventive fungicidal activity) [1] | inhibition of growth [2] | inhibition of growth (Mycosphaerella arachidis) | inhibition (preventative fungicidal activity) (Fusarium culmorum) | inhibition (preventive fungicidal activity) (Puccinia Recondita [5])

CON(C(=O)c1c(C)nn(C)c1F)C(C)Cc1c(Cl)sc(Cl)c1Cl (stereo not drawn) [Compound 3.001]
≥ 80%: inhibition of growth (Botryotinia fuckelianal) | inhibition (preventive fungicidal activity) [1] | inhibition of growth [2] | inhibition (preventive fungicidal activity) (Pyrenophora teres) | inhibition (preventive fungicidal activity) (Phaeosphaeria nodorum) | inhibition of growth (Mycosphaerella arachidis) | inhibition (curative fungicidal activity) (Puccinia Recondita [4]) | inhibition (preventative fungicidal activity) (Fusarium culmorum) | inhibition (preventive fungicidal activity) (Puccinia Recondita [5])

COC(c1csc(Cl)c1Cl)C(C)N(OC)C(=O)c1cn(C)nc1C(F)F (stereo not drawn) [Compound 1.037, 3-difluoromethyl-1-methyl-1H-pyrazole-4-carboxylic acid methoxy-[2-methoxy-1-methyl-2-(4,5-dichlorothiophen-3-yl)ethyl]amide]
≥ 80%: inhibition (preventative fungicidal activity) (Fusarium culmorum)

CON(C(=O)c1cn(C)nc1C(F)F)C(C)Cc1c(Cl)sc(Cl)c1Cl (stereo not drawn) [Compound 1.001, 3-difluoromethyl-1-methyl-1H-pyrazole-4-carboxylic acid methoxy-[1-methyl-2-(2,4,5-trichlorothiophene-3-yl)ethyl]amide]
≥ 80%: inhibition (preventative fungicidal activity) [3] | inhibition (preventative fungicidal activity) (Fusarium culmorum)

COC(c1c(Br)sc(Cl)c1Cl)C(C)N(OC)C(=O)c1cn(C)nc1C(F)F (stereo not drawn) [Compound 1.019]
≥ 80%: inhibition of growth (Botryotinia fuckelianal) | inhibition (preventive fungicidal activity) [1] | inhibition of growth [2] | inhibition (preventive fungicidal activity) (Pyrenophora teres) | inhibition (preventative fungicidal activity) [3] | inhibition (preventive fungicidal activity) (Phaeosphaeria nodorum) | inhibition of growth (Mycosphaerella arachidis) | inhibition (curative fungicidal activity) (Puccinia Recondita [4]) | inhibition (preventative fungicidal activity) (Fusarium culmorum) | inhibition (preventive fungicidal activity) (Puccinia Recondita [5])
